According to patent US7932246B2, “Histone deacetylase inhibitors” (Chroma Therapeutics Ltd., priority 2005, dated 2011):
At least one compound was matched to its structure with a doubt left.

Biological target: histone deacetylase activity (HeLa nuclear extract)
Assay: HDAC fluorescent activity assay (Biomol, Fluor de Lys substrate)
Assay type: biochemical
Conditions: IC50 range
Protocol: The ability of compounds to inhibit histone deacetylase activities was measured using the commercially available HDAC fluorescent activity assay from Biomol. In brief, the Fluor de Lys™ substrate, a lysine with an epsilon-amino acetylation, is incubated with the source of histone deacetylase activity (HeLa nuclear extract) in the presence or absence of inhibitor. Deacetylation of the substrate sensitises the substrate to Fluor de Lys™ developer, which generates a fluorophore.
Data are expressed as a percentage of the control, measured in the absence of inhibitor, with background signal being subtracted from all samples, as follows:— % activity=[(S^i−B)/(S^o−B)]×100 where S^i is the signal in the presence of substrate, enzyme and inhibitor, S^o is the signal in the presence of substrate, enzyme and the vehicle in which the inhibitor is dissolved, and B is the background signal measured in the absence of enzyme.
Histone deacetylase activity from crude nuclear extract derived from HeLa cells was used for screening. The preparation, purchased from 4C (Seneffe, Belgium), was prepared from HeLa cells harvested whilst in exponential growth phase. The nuclear extract is prepared according to Dignam JD1983 Nucl. Acid. […] The final buffer composition was 20 mM Hepes, 100 mM KCl, 0.2 mM EDTA, 0.5 mM DTT, 0.2 mM PMSF and 20% (v/v) glycerol.

**Q.** For O=C(NO)c1cnc(N2CC3C(C2)C3NC(=O)c2ccc3sccc3c2)nc1 (stereo not shown) [Example 17, N-Hydroxy 2-{6-[(1-benzothien-5-ylcarbonyl)amino]-3-azabicyclo[3.1.0]hex-3-yl}pyrimidine-5-carboxamide], which IC50 is on record?
**A.** Its IC50 is under 100 nM.

**Q.** With O=C(NO)c1cnc(N2CC3C(C2)C3NCC2CCCCC2)nc1 (stereo not shown) [Example 25, N-Hydroxy 2-{6-[(cyclohexylmethyl)amino]-3-azabicyclo[3.1.0]hex-3-yl}pyrimidine-5-carboxamide] as the molecule, how does the IC50 read?
**A.** The IC50 was under 100 nM.

**Q.** How did the IC50 turn out when CN(C)CCN(C1C2CN(c3ncc(C(=O)NO)cn3)CC21)S(=O)(=O)c1ccc2ccccc2c1 (stereo not shown) [Example 52, N-Hydroxy 2-{6-[(2-dimethylaminoethyl)(naphthalene-2-sulfonyl)-amino]-3-azabicyclo[3.1.0]hex-3-yl}pyrimidine-5-carboxamide] was run?
**A.** Its IC50 is under 100 nM.

**Q.** COc1ccc(CNC2C3CN(c4ncc(C(=O)NO)cn4)CC32)cc1 (stereo not shown) [Example 21, N-Hydroxy 2-{6-[(4-methoxybenzyl)amino]-3-azabicyclo[3.1.0]hex-3-yl}pyrimidine-5-carboxamide] was tested. Which IC50 did it give?
**A.** Its IC50 is under 100 nM.

**Q.** How did the IC50 turn out when O=C(NO)c1cnc(N2CC3C(C2)C3NC(=O)c2ccccc2)nc1 (stereo not shown) [Example 13, N-Hydroxy 2-[6-(benzoylamino)-3-azabicyclo[3.1.0]hex-3-yl]pyrimidine-5-carboxamide] was run?
**A.** The IC50 was under 100 nM.

**Q.** With O=C(NO)c1cnc(N2CC3C(C2)C3NS(=O)(=O)c2cccs2)nc1 (stereo not shown) [Example 2, N-Hydroxy 2-{6-[(thien-2-ylsulfonyl)amino]-3-azabicyclo[3.1.0]hex-3-yl}pyrimidine-5-carboxamide] as the molecule, how does the IC50 read?
**A.** Its IC50 is under 100 nM.

**Q.** Which IC50 does the source give for O=C(CCCCCc1ccccc1)NC1C2CN(c3ncc(C(=O)NO)cn3)CC21 (stereo not shown) [Example 8, N-Hydroxy 2-[6-(6-phenylhexanoyl)amino-3-azabicyclo[3.1.0]hex-3-yl]-pyrimidine-5-carboxamide] here?
**A.** The IC50 was under 100 nM.
